The values below come from paper PMC7381282.

Sequences of proteins named here, by UniProt entry; tags and fusion partners are left off. Residues count along the entry.
UniProt O73885: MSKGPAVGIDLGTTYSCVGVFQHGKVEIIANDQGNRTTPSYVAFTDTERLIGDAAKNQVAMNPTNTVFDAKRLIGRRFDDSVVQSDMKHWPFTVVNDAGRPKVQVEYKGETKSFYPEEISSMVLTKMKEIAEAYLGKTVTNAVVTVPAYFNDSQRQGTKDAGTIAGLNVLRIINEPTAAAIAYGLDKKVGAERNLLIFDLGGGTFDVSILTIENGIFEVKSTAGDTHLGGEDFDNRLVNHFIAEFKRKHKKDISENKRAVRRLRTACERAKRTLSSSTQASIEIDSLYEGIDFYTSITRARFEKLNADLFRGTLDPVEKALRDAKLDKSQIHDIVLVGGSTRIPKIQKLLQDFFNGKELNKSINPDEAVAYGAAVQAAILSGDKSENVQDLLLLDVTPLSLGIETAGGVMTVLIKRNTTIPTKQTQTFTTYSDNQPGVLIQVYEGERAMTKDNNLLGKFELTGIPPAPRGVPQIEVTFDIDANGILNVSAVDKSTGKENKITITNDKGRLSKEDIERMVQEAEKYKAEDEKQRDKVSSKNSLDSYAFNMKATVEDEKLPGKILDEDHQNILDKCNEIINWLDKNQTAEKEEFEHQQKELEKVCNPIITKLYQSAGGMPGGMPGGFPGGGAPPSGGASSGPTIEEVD
UniProt P11142: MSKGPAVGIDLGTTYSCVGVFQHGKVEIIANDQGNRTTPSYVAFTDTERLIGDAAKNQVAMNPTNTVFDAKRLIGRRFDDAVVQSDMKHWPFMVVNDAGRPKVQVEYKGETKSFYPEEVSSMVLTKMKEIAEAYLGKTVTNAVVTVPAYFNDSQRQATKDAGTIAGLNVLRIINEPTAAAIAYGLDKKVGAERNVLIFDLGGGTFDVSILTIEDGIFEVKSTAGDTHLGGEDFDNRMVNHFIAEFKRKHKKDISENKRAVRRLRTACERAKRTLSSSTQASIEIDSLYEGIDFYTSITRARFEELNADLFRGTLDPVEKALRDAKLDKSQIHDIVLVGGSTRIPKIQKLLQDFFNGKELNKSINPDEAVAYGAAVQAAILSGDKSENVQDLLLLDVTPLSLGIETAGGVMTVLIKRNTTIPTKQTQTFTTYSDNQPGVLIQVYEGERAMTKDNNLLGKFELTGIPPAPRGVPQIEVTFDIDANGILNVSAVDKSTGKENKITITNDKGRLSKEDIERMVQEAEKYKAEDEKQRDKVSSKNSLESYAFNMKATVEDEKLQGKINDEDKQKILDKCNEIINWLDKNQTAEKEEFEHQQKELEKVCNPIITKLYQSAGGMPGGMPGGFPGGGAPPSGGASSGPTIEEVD
UniProt P11223, residues 19-272: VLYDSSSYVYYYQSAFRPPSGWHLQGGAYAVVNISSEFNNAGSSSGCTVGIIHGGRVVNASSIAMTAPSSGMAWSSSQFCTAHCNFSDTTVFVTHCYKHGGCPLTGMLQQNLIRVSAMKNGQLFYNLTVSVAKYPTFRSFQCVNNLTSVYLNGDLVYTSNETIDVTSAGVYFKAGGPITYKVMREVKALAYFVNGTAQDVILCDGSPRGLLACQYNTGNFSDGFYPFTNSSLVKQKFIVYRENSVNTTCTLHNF

The target of test [1] is IBV M41 spike protein (infectious bronchitis virus (IBV) strain M41) (UniProt P12651). The test is described as follows: co-IP; M41-infected CEK cells, immunoprecipitation with mAb 1H1 to IBV S or mouse IgG; immunoblots with mAbs to IBV S1 and HSPA8. In general terms: A western blot detects proteins with antibodies after separation by electrophoresis.
Test [2] addresses flag-n-HSPA8 (chicken HSPA8) (chicken) (UniProt O73885). Kind of test: co-IP; 293T cells cotransfected; flag-tagged HSPA8 immunoprecipitated with flag antibody, Sepharose A/G beads; Western blot with anti-flag and anti-GFP.
Test [3] has as its target T1, EGFP-C3-M41-RBD (infectious bronchitis virus (IBV) strain M41) (UniProt P12651).
T1 sequence: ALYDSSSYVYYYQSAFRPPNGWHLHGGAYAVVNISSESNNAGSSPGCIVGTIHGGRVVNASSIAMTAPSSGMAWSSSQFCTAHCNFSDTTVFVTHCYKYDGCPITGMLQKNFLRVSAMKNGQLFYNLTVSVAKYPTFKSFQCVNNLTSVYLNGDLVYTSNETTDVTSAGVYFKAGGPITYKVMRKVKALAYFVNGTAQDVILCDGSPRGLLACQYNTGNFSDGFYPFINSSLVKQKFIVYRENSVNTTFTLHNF
The test is described as follows: co-IP; reciprocal: 293T cells cotransfected; GFP-tagged M41-RBD immunoprecipitated with GFP antibody, Sepharose A/G beads; Western blot with anti-flag and anti-GFP.

Test [4] has as its target GST-HSPA8 (not stated (chicken, human or pig HSPA8 cloned)) (UniProt O73885). Kind of test: pull-down; GST or GST-HSPA8 bound to glutathione-sepharose beads, incubated 12 h at 4°C with lysates of 293T cells transfected with EGFP-C3-M41-RBD; Western blot with antibodies against GST and GFP; only the target purified.
A further test addresses flag-human-HSPA8 (human) (UniProt P11142). Kind of test: co-IP; 293T cells cotransfected; flag-tagged HSPA8 immunoprecipitated with flag antibody, Sepharose A/G beads; Western blot with anti-flag and anti-GFP.

These are yes or no findings as the source states them, for the method shown. In cells and extracts the contact can be indirect. Some binding calls cover weakened binding; strength is not graded here. For part of these data: Where a sequence is shown, tags or fusion partners need not be part of it.

On to “heat shock protein member 8 (HSPA8), chicken, endogenous (from UniProt O73885 1-646)”, for which the binding result in test [1] is “binds”.

On to “EGFP-C3-BD-253 (from UniProt P11223 19-272) (domain or fragment)”, for which, in test [2], the binding entry is on record as “binds”.

Turning to “flag-n-HSPA8 (chicken HSPA8) (from UniProt O73885 1-646)”, in test [3], the binding result was “binds”.

B1: EGFP-C3-M41-RBD (domain or fragment, UniProt P12651 19-272)
chain: ALYDSSSYVYYYQSAFRPPNGWHLHGGAYAVVNISSESNNAGSSPGCIVGTIHGGRVVNASSIAMTAPSSGMAWSSSQFCTAHCNFSDTTVFVTHCYKYDGCPITGMLQKNFLRVSAMKNGQLFYNLTVSVAKYPTFKSFQCVNNLTSVYLNGDLVYTSNETTDVTSAGVYFKAGGPITYKVMRKVKALAYFVNGTAQDVILCDGSPRGLLACQYNTGNFSDGFYPFINSSLVKQKFIVYRENSVNTTFTLHNF
Regarding B1, the binding result (in test [4]; in test [2]; in the test with flag-human-HSPA8 (human)) was “binds” in each case.
